Data reported in PubChem BioAssay AID2685 (National Center for Advancing Translational Sciences (NCATS), 2010).
The whole screen tested about 320,000 compounds, of which about 2,100 (0.66%) were called active. This list was built around the results that the source calls inconclusive (neither active nor inactive); the mix of calls is not that of the screen. Calls follow the shape of the dose curve; as a rule, active = well fitted inhibition curve with a large enough effect in the signal ratio, with a control signal flat (not every such curve was filed as active); inconclusive = small, poorly fitted or top-dose-only effect, or effect the other way, or a change in a side signal; inactive = flat fitted curve, though single readings scatter; the % refers to the signal ratio. Potencies of inconclusive entries are doubtful fits and often do not repeat.

Assay: qHTS Assay for Lipid Storage Modulators in Drosophila S3 Cells
Details: BODIPY lipid droplet fluorescence, 18-24 h, cells fed with added oleic acid; lipid storage change, negative = inhibition: at 46.1 µM (top of the series) unless noted
In short: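 Drosophila S3 cells loaded with oleic acid (400 uM, as added) and compounds at several concentrations; lipid droplets imaged by 488-nm laser-scanning cytometry, 500–530 nm intensity and object ratio to cell channel. Percent activity normalized to 20 uM Triacsin C.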
% is scaled to controls: 0 for no effect and ±100 for the full control effect; potency is read from the fitted curve at half-maximal effect.

SMILES | Potency | lipid storage change, negative = inhibition
CCN(CC)S(=O)(=O)c1cccc(C(=O)NC(C(=O)Nc2nnc(C)s2)C(C)C)c1 (centres undefined) | inconclusive: 14.6 µM [rising, partial curve] | –
C=CCn1c(Cc2cccc3ccccc23)n[nH]c1=S | – | inconclusive: 11.6%
CCOC(=O)N1CCN(CC(O)COc2ccccc2C(C)CC)CC1 (centres undefined) | active: 3.66 µM | –
Cc1cccc(NC(=O)c2cc(NC(=O)c3ccco3)ccc2Cl)n1 | inconclusive: 6.51 µM [activator, single point] | –
CCC(=O)c1cn(CC(=O)Nc2cccc(C)c2)c2ccccc12 | inconclusive: 0.82 µM [activator, full curve, poor fit] | –
O=c1[nH]c(=O)n(CCOc2ccc(Cl)cc2)cc1Br | inconclusive: 0.0366 µM [activator, full curve, poor fit] | –
COC(=O)c1cccc(NC(=O)Cn2cnc3c2c(=O)n(C)c(=O)n3C)c1 | inconclusive: 6.51 µM [activator, single point] | –
CCCc1cc(=O)oc2c(C)c(OC(C)C(=O)NCc3ccccn3)ccc12 (centres undefined) | – | inconclusive: -27.4%
CCCn1c(N)c(C(=O)COC(=O)COc2ccc(Cl)c(C)c2)c(=O)n(C)c1=O | – | inconclusive
CCOc1ccc2oc(C(=O)OCC(=O)NC3CC3)c(C)c2c1 | – | inconclusive: -9.28%
C=CCNC(=O)c1cc2cccc(OC)c2oc1=O | – | inconclusive: 21.8%
Clc1ccc(Cn2c(CN3CCCC3)nc3ccccc32)cc1 | – | inconclusive: -29.9%
O=c1oc2ccccc2c(O)c1C=Nc1cccnc1 | – | inconclusive: 7.07% [at 9.22 µM]
Cc1ccccc1NC(=O)CSC1=C(C#N)C(c2ccsc2)CC(=O)N1 (centres undefined) | inconclusive: 2.31 µM [activator, partial curve] | –
CCOC(=O)c1c(NC(=O)CCN2CCOCC2)sc(C)c1-c1ccccc1 | – | inconclusive: -21.5%
Cc1c(C(=O)N2CCCC2)oc2c1-c1[nH]ncc1CC2 | – | inconclusive: 1.75%
CCN(CC)CCNC(=S)Nc1ccc2nc(N3CCN(C)CC3)cc(C)c2c1 | – | inconclusive: 20.8%
CC(C)OC(=O)CSc1nnc(-c2ccccn2)n1C | – | inconclusive: -0.411%
CCC(C(=O)N1CCC(C(N)=O)CC1)n1nc(C)n2c(cc3occc32)c1=O (centres undefined) | – | inconclusive: 264%
CC1CCCN(C(=O)COC(=O)c2ccc(=O)n(Cc3ccccc3)n2)C1 (centres undefined) | – | inconclusive: 4.31%
CC(=O)N1c2ccccc2S(=O)(=O)c2ccccc21 | inconclusive: 0.116 µM [falling, full curve, poor fit] | –
CCn1ncc([C@@H]2C[C@H]3CN(Cc4ccccc4C)C(=O)[C@]34CCCN24)c1C | – | inconclusive: -7.67%
COc1ccc(CCNC(=O)CCCCCN2C(=O)[C@@H]3Cc4ccccc4CN3C2=O)cc1OC | – | inconclusive: -22.4%
O=C(CCNS(=O)(=O)c1ccc2c(c1)CCC(=O)N2)Nc1ccc(F)c(F)c1 | – | inconclusive: 6.61%
COc1ccccc1-n1c(-c2ccco2)n[nH]c1=S | – | inconclusive: 11.2%
O=C(NCCc1ccccc1)C(c1ccc(F)cc1)N(C(=O)c1csnn1)C1CC1 (centres undefined) | inconclusive: 14.6 µM [activator, partial curve] | –
CSc1ccccc1NC(=O)CSc1nnc(Cc2ccccc2)o1 | – | inconclusive: 200%

SMILES | Potency | lipid storage change, negative = inhibition
C/C(=N\NC(=O)Cc1ccccc1)c1ccc(Br)s1 | inconclusive: 9.2 µM [falling, partial curve] | –
O=C(CCC1CCCN(C(=O)CCC(F)(F)F)C1)NCc1ccc(F)c(F)c1 (centres undefined) | – | inconclusive: 10.8%
Nn1c(-c2cccs2)nc2sc3c(c2c1=O)CCCC3 | – | inconclusive: 0.823%
O=C(CN1C(=O)NC2(CCCC2)C1=O)N1CCN(S(=O)(=O)c2ccccc2[N+](=O)[O-])CC1 | – | inconclusive: 2.32%
CCCn1c(=N)n(CC(=O)OCC)c2ccccc21 | – | inactive
CC(C)c1ccccc1NC(=S)NC1CCN(Cc2ccccc2)CC1 | – | inconclusive: -25.2%
Cc1ncc([N+](=O)[O-])n1CC(=O)Nc1ccc(F)c(Cl)c1 | inconclusive: 29.1 µM [activator, single point] | –
COc1ccc(S(=O)(=O)NC(C)C(=O)NCc2cccnc2)cc1Cl (centres undefined) | – | inconclusive: 43.4%
CCc1ccc(NC(=O)CSc2nc3c(c(=O)n(C)c(=O)n3C)n2C)cc1 | – | inconclusive: 5.78%
COCc1c(C(=O)Nc2ccc(Cl)cc2F)oc2ccccc12 | – | inconclusive: 3.85%
O=C(NCc1ccco1)C1CC(c2cccc([N+](=O)[O-])c2)=NO1 (centres undefined) | – | inconclusive: 19.2%
CC(=O)c1ccc(OCc2cc(C(=O)NC(C)CCn3cccn3)no2)cc1 (centres undefined) | – | inconclusive: 59.9%
O=C(NC(=S)Nc1ccc2oc(=O)ccc2c1)c1cccc(Cl)c1 | – | inconclusive: -10.6%
CC(=O)Nc1ccc(-c2cc(C(=O)O)c3ccc(C)cc3n2)cc1 | – | inconclusive: 5.56%
Cc1ccc(C(=O)NCC(=O)N(C)Cc2cccc(F)c2)s1 | inconclusive: 7.31 µM [rising, partial curve, poor fit] | –
O=C(N/N=C/c1ccc(OC(=O)c2cccs2)cc1)c1ccc(F)cc1 | – | inconclusive: -41.4%
Cc1ccc(C)c(NC(=O)COC(=O)c2cccc3c2C(=O)c2ccccc2C3=O)c1 | – | inconclusive: -40.3%
CC(=O)N1CCOc2ccc(S(=O)(=O)N3CCC(C)CC3)cc21 | – | inconclusive: 0.781%
C[C@H](NC(=O)c1nc[nH]c1C(=O)NC1CCN(C(=O)OC(C)(C)C)CC1)C(=O)OC(C)(C)C | inconclusive: 13 µM [falling, partial curve] | –
COc1ccc(CCC(=O)O)c(O)c1 | – | inconclusive: -12.4%
CCc1ccc2[nH]c(=O)c(CN(Cc3ccco3)C(=S)NCC3CCCO3)cc2c1 (centres undefined) | – | inconclusive: 12.5%
Cc1ccc(S(=O)(=O)N2CCN(C(=O)COC(=O)CSc3ccccc3)CC2)c(C)c1 | inconclusive: 0.517 µM [activator, full curve, poor fit] | –
O=[N+]([O-])c1cc(S(=O)(=O)N2CCOCC2)ccc1N1CCCC1 | inconclusive: 0.0052 µM [falling, full curve] | –
COc1cc(C(=O)Nc2cccc(S(=O)(=O)NCc3ccco3)c2)cc(OC)c1OC | – | inconclusive: -13.3%
O=C1CCCN1CCC(=O)N1CCCC(Nc2ccc(F)cc2)C1 (centres undefined) | inconclusive: 0.326 µM [activator, partial curve, poor fit] | –
CCc1nnc2n1N=C(c1ccc([N+](=O)[O-])cc1)CS2 | – | inconclusive: -18.6%
CC(C)Oc1ccc(CCc2nnc(SC(C)C(=O)O)n2-c2ccccc2)cc1 (centres undefined) | – | inconclusive: -4.89%

SMILES | Potency | lipid storage change, negative = inhibition
O=C(Cc1ccccc1F)Nc1ccc(S(=O)(=O)N2CCCCC2)cc1 | inconclusive: 6.51 µM [falling, single point] | –
Cc1cc(NC(=O)CCc2ccc(C)o2)no1 | – | inconclusive: -3.03%
Cc1ccc(C)c(CN2CCC(CNC(=O)Nc3cccc(Cl)c3C)CC2)c1 | active: 25.9 µM | –
CCOc1ccccc1C1C(C(=O)Nc2ccccc2OC)=C(C)Nc2nnnn21 (centres undefined) | inconclusive: 10.3 µM [activator, partial curve] | –
CCOc1ccc(C(C(=O)NCC2CCCO2)N(Cc2cccs2)C(=O)c2snc(C(N)=O)c2N)cc1 (centres undefined) | active: 1.64 µM | –
O=C(O)Cn1c(CC(=O)N2CCCC2)nc2ccccc21 | – | inconclusive: -139%
O=C(c1cccc([N+](=O)[O-])c1)N1CCCN(C(=O)c2cccc([N+](=O)[O-])c2)CC1 | – | inconclusive: 1.75%
COc1cccc(CN(C)C(=O)Cc2c[nH]c3ccccc23)c1OC | inconclusive: 0.116 µM [falling, single point] | –
CC1=C(C(=O)OCC2CCCO2)C(c2ccccc2)C2=C(CCCC2=O)N1 (centres undefined) | – | inconclusive: -22%
Cc1ccc(C2(C)NC(=O)N(CC(=O)Nc3ccc4c(c3)CCC4)C2=O)cc1 (centres undefined) | – | inactive
CS(=O)(=O)c1ccc2nc(NC(=O)CN3CCCCCC3)sc2c1 | – | inconclusive: -35%
CCOc1ccc(CNC(=O)C2CCN(S(=O)(=O)c3ccc4c(c3)CCCC(=O)N4)CC2)cc1 | – | inconclusive: 21.4%
O=C(COC(=O)C1CCCCC1)Nc1ccccc1OC(F)F | – | inconclusive: 65.6%
CCn1cc(C2=NC(c3ccccc3)CO2)c2ccccc21 (centres undefined) | inconclusive: 7.31 µM [activator, partial curve] | –
CC(=O)Nc1ccc(NC(=O)c2cc(-n3cnnc3)ccc2Cl)cc1 | – | inactive
Cc1ccc(C(=O)NC(Cc2c[nH]c3ccccc23)C(=O)O)cc1 (centres undefined) | active: 16.4 µM | –
COc1ccc(CCN=C(N)NS(=O)(=O)c2ccc(C)c(C)c2)cc1OC | – | inconclusive: 3.9%
Brc1ccc(-n2cccc2/C=N/n2cnnc2)cc1 | – | inactive
O=C(Cc1cn(-c2ccccc2)nc1-c1ccccc1)N1CCCCC1 | – | inconclusive: -3.05%
Fc1cccc(Cl)c1CSc1ncn[nH]1 | – | inconclusive: 3.12%
Cn1c2ccc(F)cc2c2nc3ccccc3nc21 | inconclusive: 18.4 µM [falling, single point] | –
CCSc1ncc(/C=N/Nc2ccccc2)n1C | inconclusive: 1.3 µM [activator, partial curve] | –
O=C1c2ccccc2C(=O)c2c1cccc2N1CCN(Cc2ccccc2)CC1 | active: 18.4 µM | –
CCCn1c(SCc2nc(N)nc(N3CCCCC3)n2)nc2c1c(=O)n(C)c(=O)n2C | – | inconclusive: 44.3%
Cc1ccc2nc(Cn3cc(C(F)(F)F)ccc3=O)cc(=O)n2c1 | – | inconclusive: 11.2%
